Measured data: PubChem BioAssay AID504808 (Drosophila RNAi Screening Center, 2011)

- Aim: 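Chromatin factors that keep E2F targets switched off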 (primary screen)
- Cells: Drosophila S2 cells
- Reagent: long dsRNA against Drosophila genes
- Detection: 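Dual luciferase plate measurements; E2F-specific signal taken as firefly over Renilla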
- Scale: E2F firefly: higher = more E2F reporter activity; Renilla normaliser: higher = more normaliser reporter signal
- Active means: 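a knock-down counted as active when the firefly/Renilla E2F signal rose above 50%, a threshold chosen arbitrarily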
The deposit covers about 21,000 reagents; this is an unselected part of those with a known target gene and a result. Of all reagents, 18 (0.084%) are marked active. 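Raw counts without plate normalisation, one of two replicates; the ratio scores behind the calls were not deposited.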 A number with no mark means an inactive call. A plus sign joins genes that one reagent is predicted to hit. Not stated in the record: the amount of reagent, the time to read-out.

target gene | DRSC id | E2F firefly, rep 1 | Renilla normaliser, rep 1
CG31659 | DRSC00760 | 1.58e5 | 5955
DnaJ-H | DRSC03273 | 1.04e5 | 4486
CG8329 | DRSC10978 | 70759 | 4085
CG5421 | DRSC02858 | 99582 | 4463
dmrt99B | DRSC15045 | 49304 | 3433
Ccdc39 | DRSC12286 | 1.33e5 | 7293
CG9691 | DRSC18441 | 1.19e5 | 6426
CG17283 | DRSC15219 | 1.12e5 | 6593
CG2116 | DRSC18206 | 7302 | 772
Nurf-38 | DRSC04629 | 1.07e5 | 3920
CG15514 | DRSC15053 | 1829 | 888
eIF2Bepsilon | DRSC18769 | 1632 | 968
Vha100-5 | DRSC02175 | 1.36e5 | 4870
CheB53b | DRSC05613 | 1.76e5 | 5587
Ipk1 | DRSC04235 | 84936 | 3578
Ipk1 | DRSC04236 | 1.05e5 | 4709
Ipk1 | DRSC04237 | 96203 | 4221
CG14985 | DRSC08078 | 1.32e5 | 5033
CG14985 | DRSC08443 | 96193 | 4145
eIF3j | DRSC06107 | 3661 | 205
Coq5 | DRSC19849 | 1.29e5 | 6076
TTLL1A | DRSC20121 | 1.53e5 | 5314
Jon99Fii + Jon99Cii + Jon99Ciii + 1 more | DRSC15298 | 1.36e5 | 6276
CG9759 | DRSC16558 | 81449 | 3465
CG14759 | DRSC06494 | 1.55e5 | 5585
CG17977 | DRSC06700 | 1.45e5 | 4181
Cdc45 | DRSC17747 | 2303 | 796
Cdc45 | DRSC18164 | 47574 | 3146
CG12398 | DRSC19454 | 1.41e5 | 6221
CG6550 | DRSC07001 | 89054 | 3806

Laid out differently: 7 of the entries above
Ipk1 [DRSC04236]: E2F firefly, rep 1 = 1.05e5; Renilla normaliser, rep 1 = 4709
Ipk1 [DRSC04237]: E2F firefly, rep 1 = 96203; Renilla normaliser, rep 1 = 4221
CG14985 [DRSC08078]: E2F firefly, rep 1 = 1.32e5; Renilla normaliser, rep 1 = 5033
CG14985 [DRSC08443]: E2F firefly, rep 1 = 96193; Renilla normaliser, rep 1 = 4145
eIF3j [DRSC06107]: E2F firefly, rep 1 = 3661; Renilla normaliser, rep 1 = 205
Coq5 [DRSC19849]: E2F firefly, rep 1 = 1.29e5; Renilla normaliser, rep 1 = 6076
TTLL1A [DRSC20121]: E2F firefly, rep 1 = 1.53e5; Renilla normaliser, rep 1 = 5314

Further entries follow.
target gene | DRSC id | E2F firefly, rep 1 | Renilla normaliser, rep 1
CG12885 | DRSC14572 | 1.16e5 | 7661
Cpr11A | DRSC19861 | 31446 | 2429
CG2812 | DRSC04319 | 1.18e5 | 4188
PolE2 | DRSC09737 | 71536 | 3993
Spn88Eb | DRSC16093 | 70396 | 3443
dhd | DRSC18761 | 8608 | 792
c(2)M | DRSC01922 | 92926 | 3478
ND1 (retired record) | DRSC21273 | 1.26e5 | 4795
Cpr66D | DRSC10640 | 91369 | 3771
Cpr66D | DRSC10646 | 83232 | 3414
wdb | DRSC14163 | 78691 | 5820
CG42553 | DRSC08356 | 1.00e5 | 4115
CG32086 | DRSC10586 | 1.12e5 | 6219
CG13186 | DRSC06311 | 84872 | 3949
CG17249 | DRSC08517 | 71330 | 3525
CG13898 | DRSC08368 | 94137 | 3938
smp-30 | DRSC17059 | 1.16e5 | 5925
CG34024 (retired record) | DRSC13734 | 94977 | 2626
CG17190 | DRSC15184 | 1.35e5 | 6645
CG5342 | DRSC15776 | 1.53e5 | 6619
CG8534 | DRSC16439 | 1.16e5 | 5476
hfw | DRSC18506 | 1.30e5 | 5578
bowl | DRSC00805 | 68791 | 3692
CG31380 | DRSC15688 | 1.30e5 | 5377
elB | DRSC01379 | 1.28e5 | 5024
elB | DRSC03527 | 1.03e5 | 4595
CG13282 | DRSC02254 | 98230 | 4501
Pgi | DRSC07507 | 2617 | 208
CG3457 | DRSC18509 | 2022 | 1016
Or45a | DRSC07487 | 1.37e5 | 4861
Dad | DRSC16642 | 61340 | 2668
CG8349 | DRSC03083 | 1.36e5 | 4636
mRpS30 | DRSC20107 | 8102 | 708
Amph | DRSC07578 | 2763 | 206
CG4042 | DRSC11751 | 1.43e5 | 7252
Gr22b | DRSC20911 | 76839 | 2982
LSm1 | DRSC04458 | 1.01e5 | 3944
CG2310 | DRSC15438 | 1.18e5 | 5875
CG7791 | DRSC04891 | 86436 | 3797
CG32687 | DRSC18210 | 1.12e5 | 5983
CG32687 | DRSC18237 | 1.24e5 | 5666
Abl | DRSC09661 | 1.60e5 | 8615
CG34348 | DRSC19425 | 1.24e5 | 5892
CG34348 | DRSC19644 | 1.42e5 | 6017
l(2)37Bb | DRSC02088 | 87154 | 4184
CG13016 | DRSC06271 | 72436 | 2819
BI-1 | DRSC10782 | 70127 | 3320
fwd | DRSC08580 | 73950 | 3692
CG32266 | DRSC08062 | 1.22e5 | 4267
CG10137 | DRSC02014 | 86804 | 3447
CG10137 | DRSC02015 | 93153 | 4226
Muc68Ca | DRSC10312 | 49857 | 3280
Muc68Ca | DRSC10313 | 93702 | 1361
Vps60 | DRSC10610 | 1.59e5 | 6757
